# Laboratory results from PubChem BioAssay AID493014 (National Center for Advancing Translational Sciences (NCATS), 2011).
# This is one part of the list. Further columns of the screen follow, without active or inactive calls. Compounds called inactive in the main read-out are mostly missing here. Words in brackets tell the shape of the fitted curve; partial curves, single points and poor fits give uncertain potencies.
# Test: qHTS Assay to Find Inhibitors of Chronic Active B-Cell Receptor Signaling
# Conditions: ABC-DLBCL IkBa-CBG/CBR reporter, luminescence ratio (green luciferase fused to IkBa over red control in TMD8 lymphoma cells), 4 h
# In short: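 Doxycycline induced both beetle luciferases in TMD8 lymphoma cells; IKK-driven degradation limits the IkappaBalpha-fused green signal, while red luminescence normalises for cell number and nonspecific effects. Compounds tested up to 46 uM, 4 hrs.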
# [1] = measured here: CBR red luminescence, cell number
# [2] = measured here: IkBa-CBG green luminescence
SMILES,AC50 [1],AC50 [2]
Cc1ccc(NC(=O)c2cccs2)cc1,"20.6 µM [falling, single point]",–
c1ccc(N2CCN(c3nc4ccccc4[nH]3)CC2)nc1,"11.2 µM [falling, partial curve, poor fit]",–
Cn1nnnc1Sc1ncnc2scc(-c3cc4ccccc4o3)c12,"2.91 µM [falling, full curve]",–
CCN(CC)C(=O)CSc1nc2ccsc2c(=O)n1Cc1ccccc1Cl,"8.91 µM [falling, partial curve]",–
CC(CN1CCOCC1)OC(=O)/C=C/c1ccccc1 (stereo not given),"3.16 µM [rising, full curve, poor fit]",–
COc1ccc(NC(=O)COC(=O)c2ccc(-n3cnnn3)cc2)c([N+](=O)[O-])c1,"8.2 µM [rising, partial curve, poor fit]",–
COc1ccc(C(=O)NNC(=O)CCn2nnc(-c3ccc(C)cc3)n2)cc1OC,"20 µM [falling, partial curve, poor fit]",–
NC(=O)Nc1ccc(Oc2ncc(C(F)(F)F)cc2Cl)cc1,"20 µM [rising, single point]",–
CCC(=O)OCCNc1nc(-c2ccccc2)nc2ccccc12,"8.91 µM [falling, partial curve, poor fit]",–
Cc1cc(C)c2nc(SC(C)C#N)cc(C)c2c1 (stereo not given),"25.9 µM [rising, single point]",–
Oc1ccc(/C(Cc2ccccn2)=N\Nc2ccccc2)c(O)c1,"6.31 µM [falling, single point]",–
CC(C)(C)C(=O)/C(=C/c1ccncc1)n1cncn1,"6.31 µM [falling, partial curve]","7.94 µM [rising, partial curve, poor fit]"
O=C(Nc1ccccc1F)c1ccc(S(=O)(=O)NCC2CCCO2)cc1 (stereo not given),"15.8 µM [falling, single point]",–
COc1cc2c(cc1OC)/C(=C/C(=O)c1ccc(F)cc1)NCC2,"3.98 µM [rising, full curve, poor fit]",–
CCN1CCN(c2nc(-c3ccccc3)c3ccccc3n2)CC1,"0.631 µM [falling, full curve, poor fit]",–
Clc1ccc(CSc2snnc2-c2ccccc2)cc1,"13 µM [rising, partial curve, poor fit]",–
O=C(CCCc1cccs1)Nc1nc(-c2ccc(F)cc2)cs1,"29.1 µM [rising, single point]",–
CCOC(=O)CSCC(=O)N1N=C(c2cccs2)CC1c1ccc(F)cc1 (stereo not given),"23.1 µM [falling, single point]",–
COc1cccc(C(=O)Nc2cc3c4c(c2)CC(=O)N4CCC3)c1,"11.6 µM [falling, partial curve]",–
COc1ccc(/C=C/C(=O)NCCCn2ccnc2)cc1,"4.61 µM [rising, partial curve, poor fit]",–
Cc1cccc(NC(=O)c2onc3c2CCCC3)n1,"29.1 µM [falling, single point]","20.6 µM [falling, partial curve, poor fit]"
Cc1ccc(NC2=C/C(=N/S(=O)(=O)c3cccs3)c3ccccc3C2=O)cc1,"2.59 µM [falling, full curve, poor fit]",–

SMILES,AC50 [1],AC50 [2]
Cc1csc(NC(=S)Nc2cccc(Cl)c2)n1,"29.1 µM [falling, single point]","20.6 µM [falling, partial curve]"
COc1ccc(C(=O)Nc2ccc(Br)cc2F)cc1S(=O)(=O)N1CCCC1,"18.4 µM [falling, partial curve, poor fit]",–
CCOC(=O)c1cc2c(ccn2-c2ccc(F)cc2)n1CC(=O)N(CC)CC,"35.5 µM [falling, single point]",–
CCOC(=O)c1ccc(NC(=O)c2nc[nH]c2C(=O)NCC(=O)OC(C)(C)C)cc1,"0.501 µM [rising, full curve, poor fit]",–
NC(=O)NN=C1C2CCCC1C(c1ccccc1)NC2c1ccccc1 (stereo not given),"11.2 µM [falling, single point]",–
c1ccc(-c2n[nH]c(-c3ccccn3)n2)cc1,"14.6 µM [falling, single point]",–
CC1(C)CC(=O)C=C(NC2CCCCCCC2)C1,"20.6 µM [falling, single point]",–
O=C(N/N=C/c1ccc(-n2ccnc2)cc1)c1cccs1,"1.78 µM [falling, partial curve, poor fit]",–
CCOc1ccc(CNC(=O)CCSCc2ccccc2F)cc1OC,"7.94 µM [rising, partial curve, poor fit]",–
O=c1c2ccccc2nc(SCc2ccc([N+](=O)[O-])cc2)n1-c1ccccc1,"8.91 µM [rising, partial curve, poor fit]",–
Cc1cc(N/C=C/C(=O)c2cccs2)ccc1F,"11.2 µM [falling, partial curve, poor fit]",–
COc1ccc2nc(N3CCCCC3)c(C#N)cc2c1,"0.794 µM [rising, full curve, poor fit]",–
COc1ccc(C(C)=O)cc1COC(=O)CNC(=O)c1ccccc1F,"29.1 µM [rising, single point]",–
COCCNC(=S)N/N=C(\C)c1ccc2cc(OC)ccc2c1,"0.13 µM [falling, full curve, poor fit]","7.31 µM [falling, partial curve]"
CC(=O)Nc1ccc(O)c(-c2nc3ccccc3s2)c1,"10 µM [falling, partial curve, poor fit]",–
Cc1[nH]c(=O)[nH]c(=O)c1S(=O)(=O)N1c2ccc(F)cc2CCC1C (stereo not given),"2.31 µM [rising, partial curve, poor fit]",–
CC1(C)CC(=O)c2cc(C(=O)NCc3ccco3)c(=O)n(-c3ccc(Cl)cc3)c2C1,"23.1 µM [falling, partial curve, poor fit]",–
O=C1OCC(CO)(CO)N=C1NNc1ccc(Cl)c(Cl)c1,"5.62 µM [rising, single point]",–
COC(=O)Nc1ccc(SCC(=O)c2cccc([N+](=O)[O-])c2)cc1,"25.1 µM [rising, single point]","35.5 µM [falling, single point]"
O=C(c1ccccc1)N1CCN(C2CCCCC2)CC1,"14.6 µM [rising, single point]",–
COC(=O)/C(C#N)=C/c1c(Oc2cc(C)cc(C)c2)nc2ccccn2c1=O,"35.5 µM [rising, single point]",–
COc1ccccc1/C=C1\C(=O)Nc2ccccc21,"11.2 µM [falling, partial curve]",–

SMILES,AC50 [1],AC50 [2]
COc1cc(OC)c(-c2nn3c(-c4ccco4)nnc3s2)cc1OC,"1.78 µM [rising, full curve, poor fit]",–
COc1ccccc1NC(=O)C[n+]1ccccc1,"6.31 µM [falling, full curve, poor fit]",–
Cc1c(C(=O)NC2CCCCC2)oc2ccc(F)cc12,"3.98 µM [falling, single point]",–
N/C(=N\OC(=O)c1ccccc1)c1ccn[nH]1,"12.6 µM [falling, partial curve, poor fit]",–
COc1ccc(C(=O)Oc2ccc(/C=N/Nc3ccc(Cl)c(C(=O)O)c3)cc2OC)cc1,"12.6 µM [falling, partial curve]",–
Cc1nn(Cc2ccccc2)c(C)c1NC(=O)c1noc2c1CCc1ccccc1-2,"6.51 µM [rising, single point]",–
CCCCc1ccc(NC(=S)Nc2cccnc2)cc1,"20.6 µM [rising, single point]",–
O=C1OCCN/C1=C\C(=O)c1ccccc1,"3.16 µM [falling, single point]",–
CSc1ccc(/C=N/NC(=O)c2ccccc2Cl)cc1,"6.31 µM [falling, partial curve]",–
CC1(C)CC(=O)C2=C(C1)Nc1ncnn1C2c1cccs1 (stereo not given),"3.98 µM [rising, partial curve, poor fit]",–
CCOC(=O)C1C(=O)NC(N2CCCCC2)=NC1c1ccco1 (stereo not given),"6.51 µM [falling, single point]",–
Cn1nc([N+](=O)[O-])nc1Oc1ccccc1N,"29.1 µM [falling, single point]",–
Cc1nc2nc(-c3ccco3)[nH]n2c(=O)c1Cc1ccccc1,"6.51 µM [falling, partial curve]",–
CCOC(=O)C(=CNc1cc(OC)ccc1-n1cccc1)C(=O)OCC,"35.5 µM [falling, single point]",–
COC(=O)c1c(NC(=O)c2nc3ccccc3s2)sc2c1CCN(C(C)=O)C2,"0.366 µM [falling, partial curve]",–
Cc1ccc(NC(=O)Cn2cnc([N+](=O)[O-])c2)cc1C,"22.4 µM [falling, single point]",–
CSc1nc(O)cc(=O)n1-c1ccc(F)cc1,"12.6 µM [falling, partial curve]",–
COC(=O)COc1ccc(S(=O)(=O)N2CCOCC2)cc1C,"29.1 µM [rising, single point]",–
Cc1ccccc1NCC(=O)N/N=C/c1c(C)c(C(=O)c2ccc(Cl)cc2)n2ccccc12,"29.1 µM [falling, single point]",–
Cc1cc(C)nc(SC/C=C/c2ccccc2)n1,"15.8 µM [rising, partial curve, poor fit]",–
O=C(/C=C/c1ccccc1)OCC(=O)c1c[nH]c2ccccc12,"0.731 µM [rising, full curve, poor fit]",–

# One compound at a time, from the list above. Order of values: AC50 [1] | AC50 [2]
# O=c1c2ccccc2nc(SCc2ccc([N+](=O)[O-])cc2)n1-c1ccccc1 in the list: 8.91 µM [rising, partial curve, poor fit] | –
# Cc1c(C(=O)NC2CCCCC2)oc2ccc(F)cc12 in the list: 3.98 µM [falling, single point] | –
# O=C(Nc1ccccc1F)c1ccc(S(=O)(=O)NCC2CCCO2)cc1 (stereo not given) in the list: 15.8 µM [falling, single point] | –
# COc1ccc2nc(N3CCCCC3)c(C#N)cc2c1 in the list: 0.794 µM [rising, full curve, poor fit] | –
